Data as given in PubChem BioAssay AID686922 (National Center for Advancing Translational Sciences (NCATS), 2013).
“And” between values parts separate entries of the source, which are not always exact repeats. Identical values can stand only once. Inconclusive results, whose numbers are uncertain, are shown with a selection of clear calls. Where the call is inconclusive, the potency comes from a doubtful curve fit. The source made the active and inactive calls. The call rests on the fitted dose curve; in most records, active means well fitted inhibition curve with a large enough effect; inconclusive means small, poorly fitted or top-dose-only effect; inactive means no such curve, though single readings can be large or run the other way.

Experiment: qHTS screen for inhibitors of ELG1-dependent DNA repair in human embryonic kidney (HEK293T) cells expressing luciferase-tagged ELG1: MMS Viability Assay for probe SAR
Details: HEK293T ELG1-luc + MMS viability, CellTiter-Glo, 16 h; series mostly up to 46.1 µM
Description: Cancer cells divide rapidly compared to normal cells in the body. During cell division, cancer cells need to duplicate their genome by DNA replication. The failure of genome duplication leads to cancer cells' death. Therefore, inhibitors of DNA replication could specifically kill cancer cells. Based on this concept, many chemotherapeutic agents were developed and have been used to treat cancer patients. However, there are a limited number of agents available in the clinical setting, and some of those that do exist have low efficacy and severe side effects. Therefore, if we can find the compounds that effectively block DNA replication either by directly damaging DNA or by inhibiting other cellular mechanisms, the options for cancer treatment will be broadened. With this in mind, we developed a quantitative high-throughput ELG1-luciferase reporter gene assay. Small molecules that specifically block ELG1 function in response to DNA damage can be identified by monitoring the suppression of luciferase activity. Since ELG1 defines a pathway for repairing DNA damage, agents blocking ELG1 function can be used to sensitize cancer cells to chemotherapeutic agents whose mechanism of action involves the induction of DNA damage. Cytotoxicity of the active compounds in the ELG1 qHTS assay with MMS stimulation (AID 493125) was assessed using the CellTiter-Glo Luminescent Cell Viability Assay kit (Promega, USA). CellTiter-Glo measures the intracellular ATP present in metabolically active cells using Ultra-Glo as the luciferase to detect ATP levels. In brief, the luciferase in the buffer catalyzes the oxidation of luciferin to oxyluciferin and light which is dependent on ATP. […] DMSO and wells with media alone were used as positive and negative controls, respectively. Inactivity to this assay is the desirable outcome. NIH Molecular Libraries Probe Production Network [MLPCN] NIH Chemical Genomics Center [NCGC] MLPCN Grant: R03 MH092164 Assay Provider: Kyungjae Myung, NHGRI, NIH
ELG1-luc HEK293T cells will be seeded in 1536-well plates at a density of 2,000 cells/well. Approximately 5 hours after plating, compounds will be added to the plate by pin tool transfer and MMS will be added by FRD dispenser (final concentration of MMS = 10 µM). 16 hours following the addition of the compounds, cell viability will be measured using CellTiter Glo.

Compound | Potency
COc1cc(Nc2nc(-c3ccncc3)nc3ccccc23)ccc1Cl | inconclusive: 33.2 µM [inhibitor, single point]
Fc1ccc(Nc2nc(-c3ccnc(N4CCCCC4)c3)nc3ccccc23)cc1F | inactive
Fc1cc(Nc2nc(-c3ccncc3)nc3ccccc23)ccc1-c1cn[nH]c1 | inactive
N#Cc1cnccc1-c1nc(Nc2ccc(F)c(F)c2)c2ccccc2n1 | inconclusive: 4.69 µM [inhibitor, full curve]
Cc1ccc(Nc2nc(-c3ccncc3)nc3ccccc23)cc1F | inconclusive: 20.9 µM [inhibitor, partial curve]
N#Cc1cc(-c2nc(Nc3ccc(F)c(F)c3)c3ccccc3n2)ccn1 | inconclusive: 9.35 µM [inhibitor, full curve, poor fit]
COc1cc(-c2nc(Nc3ccc(F)c(F)c3)c3ccccc3n2)ccn1 | inconclusive: 29.6 µM [inhibitor, single point]
Fc1cc(Nc2nc(-c3ccncc3)nc3ccccc23)ccc1N1CCNCC1 | inconclusive: 29.6 µM [inhibitor, single point]
COc1cc(Nc2nc(-c3ccncc3)nc3ccccc23)ccc1NS(C)(=O)=O | inactive
c1ccc2c(Nc3ccn[nH]3)nc(-c3ccncc3)nc2c1 | inconclusive: 26.4 µM [inhibitor, single point]
COc1cc(-c2nc(Nc3ccc(F)c(F)c3)c3ccccc3n2)c(F)cn1 | active: 23.5 µM
O=[N+]([O-])c1ccc(-c2nc(Nc3ccc(F)c(F)c3)c3ccccc3n2)cc1 | inactive
CN1CCN(c2cc(-c3nc(Nc4ccc(F)c(F)c4)c4ccccc4n3)ccn2)CC1 | inconclusive: 26.4 µM [inhibitor, single point]
COc1cc(Nc2nc(-c3ccncc3)nc3ccccc23)ccc1F | active: 23.5 µM and active: 20.9 µM
Fc1ccc(Nc2nc(-c3ccncc3F)nc3ccccc23)cc1F | inconclusive: 20.9 µM [inhibitor, single point]
Fc1cc(Nc2nc(-c3ccncc3)nc3ccccc23)ccc1OC(F)(F)F | inconclusive: 18.7 µM [inhibitor, partial curve]
Fc1ccc(-c2ccc(Nc3nc(-c4ccncc4)nc4ccccc34)cc2F)c(Cl)c1 | active: 18.7 µM
COc1nccc(-c2nc(Nc3ccc(F)c(F)c3)c3ccccc3n2)c1OC | inconclusive: 37.2 µM [inhibitor, single point]
Fc1ccc(-c2ccc(Nc3nc(-c4ccncc4)nc4ccccc34)cc2F)cc1 | inconclusive: 18.7 µM [inhibitor, partial curve]
Fc1cccc(Nc2nc(-c3ccncc3)nc3ccccc23)c1 | inactive
Fc1cc(Nc2nc(-c3ccncc3)nc3ccccc23)ccc1N1CCCCC1 | inconclusive: 33.2 µM [inhibitor, single point]
Fc1cc(Nc2nc(-c3ccncc3)nc3ccccc23)ccc1-c1cccc(OC(F)(F)F)c1 | active: 18.7 µM
Fc1ccccc1-c1ccc(Nc2nc(-c3ccncc3)nc3ccccc23)cc1F | inconclusive: 26.4 µM [inhibitor, single point]
Cc1noc(C)c1-c1ccc(Nc2nc(-c3ccncc3)nc3ccccc23)cc1F | inconclusive: 29.6 µM [inhibitor, single point]
Fc1cc(-c2nc(Nc3ccc(F)c(F)c3)c3ccccc3n2)ccn1 | inconclusive: 29.6 µM [inhibitor, single point]
O=c1cc(-c2nc(Nc3ccc(F)c(F)c3)c3ccccc3n2)cc[nH]1 | inactive
Fc1cc(Nc2nc(-c3ccncc3)nc3ccccc23)ccc1C(F)(F)F | active: 7.43 µM and active: 16.6 µM
Fc1cc(Nc2nc(-c3ccncc3)nc3ccccc23)ccc1-c1cccc(OC(F)F)c1 | inactive
